From PubChem BioAssay (NCATS)
The inconclusive results got no clear call from the source; some entries with a clear call stand among them for comparison. For some assays here: Where the call is inconclusive, the potency comes from a doubtful curve fit. Activity calls are given as the source filed them. Unless noted, calls come from the whole dose curve; as a rule, active = well fitted curve in the direction sought with a large enough effect; inconclusive = small, poorly fitted or top-dose-only effect, or another doubt; inactive = no such curve, though single readings can be large; an effect the other way counts as inactive or inconclusive.

Amino acid sequences for entries named in this document (tags omitted).
UniProt P08684, whole entry, looked up: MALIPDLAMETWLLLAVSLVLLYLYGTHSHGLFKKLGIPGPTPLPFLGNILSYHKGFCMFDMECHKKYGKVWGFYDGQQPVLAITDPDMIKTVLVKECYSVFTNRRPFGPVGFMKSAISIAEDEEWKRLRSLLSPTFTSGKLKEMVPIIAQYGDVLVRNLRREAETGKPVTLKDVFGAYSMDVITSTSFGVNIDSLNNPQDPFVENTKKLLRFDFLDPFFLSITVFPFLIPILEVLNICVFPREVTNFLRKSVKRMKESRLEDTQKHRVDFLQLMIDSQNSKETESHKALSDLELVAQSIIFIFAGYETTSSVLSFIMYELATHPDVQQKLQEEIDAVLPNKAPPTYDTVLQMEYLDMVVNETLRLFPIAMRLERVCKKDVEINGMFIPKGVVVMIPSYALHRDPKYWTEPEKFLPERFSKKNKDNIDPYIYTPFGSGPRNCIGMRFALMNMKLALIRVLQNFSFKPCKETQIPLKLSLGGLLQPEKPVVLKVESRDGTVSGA

Test system: not listed separately
Experiment: Cellular Toxicity (caspase-3) Jurkat (AID 655);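 note: cells exposed to compound for 16 h at 37 °C before reading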
Details: Jurkat caspase-3 activation, luminescence; caspase-3 activation: at 92.2 µM (top of the series), DMSO = 0%, tamoxifen = 100%
Method in brief: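 Luminescent Caspase-Glo 3/7 read-out (20 min, room temperature) after 16 h compound treatment at 37 C of 5000 Jurkat cells per well. AC50 derived by Hill-equation fitting, scaled between DMSO basal and 100 uM tamoxifen stimulation.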

Row | Structure (SMILES) | caspase-3 activation
1 | N#CC(Br)Br | inconclusive: 36.6%
2 | O=[N+]([O-])c1cc(C(F)(F)F)cc([N+](=O)[O-])c1Cl | inconclusive: -4.47%
3 | Brc1ccc(Oc2ccc(Br)cc2Br)c(Br)c1 | inconclusive: 31.4%

Target: Cytochrome P450 3A4 (Homo sapiens) (UniProt P08684)
Experiment: qHTS Assay for Inhibitors and Substrates of Cytochrome P450 3A4 (AID 884); note: % is set by controls: 0 for no effect and ±100 for the full control effect; nearly all actives have a fitted effect of over 50% in size
Details: recombinant CYP3A4, Luciferin-PPXE luminescence; series mostly up to 57.1 µM; activity change, negative = inhibition: at the top concentration
Method in brief: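 Luminescent readout of luciferin produced by CYP3A4 (20 nM) dealkylation of Luciferin-PPXE, 25 uM (its KM). NADPH-driven reaction ran 60 min at RT after 10 min compound preincubation; data scaled to 57 uM ketoconazole as 100% inhibition.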

Row | Structure (SMILES) | activity change, negative = inhibition
4 | c1ccc2c(c1)-c1cccc3cccc-2c13 | inactive: -14.9%
5 | N#CC(Br)Br | inactive: -5.69%
6 | c1ccc2cc3c(cc2c1)-c1cccc2cccc-3c12 | inactive: -10.2%

Test system: not listed separately
Experiment: qHTS Assay for Identification of Small Molecule Agonists for Hypoxia Response Element Signaling Pathway (AID 914; active = well fitted activation curve with a large enough effect in the signal ratio, with a control signal flat, not every such curve was filed as active; inconclusive = small, poorly fitted or top-dose-only effect, or effect the other way, or a change in a side signal; the % refers to the signal ratio; note: % of control where 0% means no effect)
Details: ME-180 (cervical carcinoma) HRE-bla reporter, beta-lactamase ratio, CoCl2, 17 h; activation: active compounds read high
Method in brief: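 Compounds in a titration series were added to ME-180 reporter cells alongside an EC50 level of CoCl2. After 17 hours, beta-lactamase activity was read as the 460nm/530nm emission ratio of CCF4, giving AC50 values.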

Row | Structure (SMILES) | activation
7 | NC[C@H](CP(=O)(O)O)c1ccc(Cl)cc1 | inactive: -2.39%
8 | CC(=O)O[C@H]1CC[C@@]2(C)C(=CC[C@@H]3[C@H]2CC[C@]2(C)C(=O)CC[C@H]32)C1 | inconclusive: -17.5%
9 | C=CCN1CC[C@@]23c4c5ccc(O)c4O[C@H]2/C(=N\N=C2/CC[C@@]4(O)[C@H]6Cc7ccc(O)c8c7[C@@]4(CCN6CC=C)[C@@H]2O8)CC[C@]3(O)[C@@H]1C5 | inactive: 0.657%

Test system: not listed separately
Experiment: qHTS Assay for Identification of Small Molecule Antagonists for Thrombopoietin (TPO) Signaling Pathway (AID 918); note: potency is the fitted concentration of half-maximal effect; nearly all actives have a fitted effect of over 60% in size
Details: TPO-dependent cell signaling reporter, antagonist mode; activity change, negative = inhibition: at 38.5 µM (top of the series)
Method in brief: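 Inhibition read as reduced luciferase luminescence after 24 h at 37 C in IL-3-deprived Ba/F3 cells carrying human TPO receptor and GPIIb-promoter reporter, stimulated with 26 pM TPO (final, its EC50) alongside compound.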

Row | Structure (SMILES) | activity change, negative = inhibition | Potency
10 | CC[C@@]1(c2ccc(N)cc2)CCC(=O)NC1=O | inconclusive: -12% [phenotype inactive] | 
11 | NC[C@H](CP(=O)(O)O)c1ccc(Cl)cc1 | inconclusive: 4.38% [phenotype inactive] | 
12 | C=CCN1CC[C@@]23c4c5ccc(O)c4O[C@H]2/C(=N\N=C2/CC[C@@]4(O)[C@H]6Cc7ccc(O)c8c7[C@@]4(CCN6CC=C)[C@@H]2O8)CC[C@]3(O)[C@@H]1C5 |  | active: 12.6 µM

Test system: not listed separately
Experiment: Cell Viability - LYMP2-001 (AID 921); note: potency is the fitted concentration of half-maximal effect; nearly all actives have a fitted effect of over 70% in size
Details: LYMP2-001 lymphoblastoid cell viability; activity change, negative = cytotoxic: at 92.2 µM (top of the series)
Method in brief: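 Cellular ATP loss read by luciferase luminescence after 24 h compound exposure at 37 C in complete medium. LYMP2-001 lymphoblastoid cells, 2500/well; qHTS concentration-response data fitted with Hill equation for AC50.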

Row | Structure (SMILES) | Potency
13 | ClCC1CO1 (configuration not stated) | inconclusive: 20 µM [cytotoxic, partial curve, poor fit]
14 | O=[N+]([O-])c1ccccc1CCl | inconclusive: 100 µM [cytotoxic, partial curve, poor fit]
15 | c1ccc(Nc2ccc(Nc3ccccc3)cc2)cc1 | inconclusive: 39.8 µM [cytotoxic, partial curve, poor fit]
16 | O=[N+]([O-])c1cc(C(F)(F)F)cc([N+](=O)[O-])c1Cl | active: 25.1 µM
17 | CN(C)c1ccc(N(C)C)cc1 | active: 50.1 µM

Test system: not listed separately
Experiment: MultiTox-Fluor Cytotoxicity Assay - LYMP1-002 - Dead Cells (AID 960); note: nearly all actives have a fitted effect of over 60% in size; note: potency is the fitted concentration of half-maximal effect;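 for cytotoxicity (dead cells): 0% = DMSO and 100% = tetraoctylammonium bromide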
Details: LYMP1-002 lymphoblastoid cells, dead-cell protease fluorescence; cytotoxicity (dead cells): at 46.1 µM (top of the series)
Method in brief: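 Dead-cell fluorescence (Ex/Em 485/520) after 16 h compound exposure at 37 C of LYMP1-002 lymphoblastoid cells in complete medium; AC50 by Hill equation, with data scaled between DMSO and 15 uM tetraoctylammonium bromide.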

Row | Structure (SMILES) | cytotoxicity (dead cells) | Potency
18 | O=C(O)C(Br)CBr (configuration not stated) | inactive: -13.9% | 
19 | Cc1cc(N=Nc2ccccc2C)ccc1N |  | inconclusive: 20 µM [cytotoxic, partial curve, poor fit]
20 | c1ccc(Nc2ccc(Nc3ccccc3)cc2)cc1 | inconclusive: 42.8% [cytotoxic] | 
21 | CCOP(=S)(OCC)Oc1ccc([N+](=O)[O-])cc1 |  | inconclusive: 0.004 µM [cytotoxic, full curve, poor fit]

Test system: not listed separately
Experiment: Cell Viability - LYMP1-003 - Assay at 40 hr (AID 964); note: nearly all actives have a fitted effect of over 60% in size; note: potency is the fitted concentration of half-maximal effect; for activity change, negative = cytotoxic: % is set by controls: 0 for no effect and ±100 for the full control effect
Details: LYMP1-003 lymphoblastoid viability; series mostly up to 92.2 µM; activity change, negative = cytotoxic: at the top concentration
Method in brief: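 Viability is taken as cellular ATP, read by CellTiter-Glo luminescence after 40 h of compound exposure at 37 C. Cells: human lymphoblastoid line LYMP1-003 at 2500/well; AC50 values derived by Hill-equation fitting of concentration-response data.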

Row | Structure (SMILES) | activity change, negative = cytotoxic | Potency
22 | O=[N+]([O-])c1ccccc1CCl | inactive: -6.85% | 
23 | Nc1ccc([N+](=O)[O-])cc1N |  | inconclusive: 12.6 µM [cytotoxic, partial curve]
24 | Cc1cc(N=Nc2ccccc2C)ccc1N |  | inconclusive: 25.1 µM [cytotoxic, full curve]
25 | C(CCOCC1CO1)COCC1CO1 (configuration not stated) |  | inconclusive: 12.6 µM [cytotoxic, partial curve]

Test system: not listed separately
Experiment: Cell Viability - LYMP2-004 (AID 966); note: nearly all actives have a fitted effect of over 65% in size; note: potency is the fitted concentration of half-maximal effect;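 for activity change, negative = cytotoxicity: plate controls were DMSO only for no effect and tetraoctylammonium bromide control for full effect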
Details: LYMP2-004 lymphoblastoid cell viability, qHTS; activity change, negative = cytotoxicity: at 92.2 µM (top of the series)
Method in brief: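 AC50 values come from Hill modelling of concentration-dependent loss of intracellular ATP, measured by CellTiter-Glo luminescence. Human LYMP2-004 lymphoblastoid cells (2500/well) were exposed to compound for 24 h at 37 C.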

Row | Structure (SMILES) | Potency | activity change, negative = cytotoxicity
26 | O=C(O)C(Br)CBr (configuration not stated) | inconclusive: 39.8 µM [cytotoxic, partial curve, poor fit] | 
27 | Cc1cc(N=Nc2ccccc2C)ccc1N |  | inactive: 3.6%
28 | C(CCOCC1CO1)COCC1CO1 (configuration not stated) | inconclusive: 20 µM [cytotoxic, partial curve, poor fit] | 
29 | c1ccc2cc3c(cc2c1)-c1cccc2cccc-3c12 |  | inactive: 14.1%
30 | O=[N+]([O-])c1cc(C(F)(F)F)cc([N+](=O)[O-])c1Cl | inconclusive: 50.1 µM [cytotoxic, single point] | 
31 | CN(C)c1ccc(N(C)C)cc1 | inconclusive: 50.1 µM [cytotoxic, partial curve, poor fit] | 

3 entries already listed, ordered by number of heavy atoms, ascending:
Row | Structure (SMILES) | Potency | activity change, negative = cytotoxicity
31 | CN(C)c1ccc(N(C)C)cc1 | inconclusive: 50.1 µM [cytotoxic, partial curve, poor fit] | 
28 | C(CCOCC1CO1)COCC1CO1 (configuration not stated) | inconclusive: 20 µM [cytotoxic, partial curve, poor fit] | 
27 | Cc1cc(N=Nc2ccccc2C)ccc1N |  | inactive: 3.6%

Test system: not listed separately
Experiment: Cell Viability - LYMP2-005 (AID 967); note: potency is the fitted concentration of half-maximal effect;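 for activity change, negative = viability loss: plate controls were DMSO only for no effect and 92 µM tetraoctylammonium bromide control for full effect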
Details: LYMP2-005 lymphoblastoid cell viability; series mostly up to 92.2 µM; activity change, negative = viability loss: at the top concentration
Method in brief: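 LYMP2-005 human lymphoblastoid cells (2500/well) were treated with compounds for 24 h at 37 C. Intracellular ATP was then measured by CellTiter-Glo luminescence after 30 min at room temperature. AC50 values came from Hill-equation fits of qHTS concentration-response data.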

Row | Structure (SMILES) | activity change, negative = viability loss | Potency
32 | N#CC(Br)Br | inactive: -14.6% | 
33 | ClCC1CO1 (configuration not stated) |  | inconclusive: 0.251 µM [cytotoxic, full curve, poor fit]
34 | O=[N+]([O-])c1cc(C(F)(F)F)cc([N+](=O)[O-])c1Cl | inactive: -29.7% | 
35 | CN(C)c1ccc(N(C)C)cc1 |  | inconclusive: 39.8 µM [cytotoxic, partial curve, poor fit]

Test system: not listed separately
Experiment: Cell Viability - LYMP2-009 (AID 968); note: potency is the fitted concentration of half-maximal effect; nearly all actives have a fitted effect of over 55% in size
Details: LYMP2-009 lymphoblastoid cell viability; series mostly up to 92.2 µM; activity change, negative = viability loss: at the top concentration

Row | Structure (SMILES) | Potency
36 | ClCC1CO1 (configuration not stated) | inconclusive: 79.4 µM [cytotoxic, single point]
37 | O=[N+]([O-])c1ccccc1CCl | inconclusive: 79.4 µM [cytotoxic, single point]
38 | CN(C)c1ccc(N(C)C)cc1 | inconclusive: 50.1 µM [cytotoxic, partial curve, poor fit]

Test system: not listed separately
Experiment: Cell Viability - LYMP2-011 (AID 969); note: potency is the fitted concentration of half-maximal effect; nearly all actives have a fitted effect of over 60% in size
Details: LYMP2-011 lymphoblastoid cells viability; viability change, negative = cytotoxic: at 92.2 µM (top of the series)
Method in brief: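 Cytotoxicity qHTS with ATP content as read-out: lymphoblastoid cells (2500/well) exposed to compound for 24 h at 37 C, then luciferase luminescence measured. Concentration-response data fitted with the standard Hill equation to give AC50.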

Row | Structure (SMILES) | Potency
39 | N#CC(Br)Br | inconclusive: 79.4 µM [cytotoxic, partial curve, poor fit]
40 | O=[N+]([O-])c1ccccc1CCl | inconclusive: 79.4 µM [cytotoxic, single point]
41 | O=[N+]([O-])c1cc(C(F)(F)F)cc([N+](=O)[O-])c1Cl | active: 39.8 µM
42 | CN(C)c1ccc(N(C)C)cc1 | inconclusive: 79.4 µM [cytotoxic, single point]

Test system: not listed separately
Experiment: Cell Viability - LYMP2-013 (AID 970); note: nearly all actives have a fitted effect of over 55% in size; note: potency is the fitted concentration of half-maximal effect;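 for activity change, negative = cytotoxic: 0% = DMSO only and full inhibition = tetraoctylammonium bromide control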
Details: LYMP2-013 lymphoblastoid cells viability; activity change, negative = cytotoxic: at 92.2 µM (top of the series)
Method in brief: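 qHTS cytotoxicity: ATP-dependent luminescence (CellTiter-Glo, 30 min room temperature) read after 24 h compound exposure at 37 C of 2500 LYMP2-013 lymphoblastoid cells per well. Concentration-response fitted with Hill equation to give AC50.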

Row | Structure (SMILES) | Potency | activity change, negative = cytotoxic
43 | N#CC(Br)Br | inconclusive: 50.1 µM [cytotoxic, partial curve, poor fit] | 
44 | ClCC1CO1 (configuration not stated) |  | inactive: -4.86%
45 | O=[N+]([O-])c1ccccc1CCl | inconclusive: 79.4 µM [cytotoxic, single point] | 
46 | O=[N+]([O-])c1cc(C(F)(F)F)cc([N+](=O)[O-])c1Cl | active: 39.8 µM | 
47 | CN(C)c1ccc(N(C)C)cc1 | inconclusive: 50.1 µM [cytotoxic, partial curve] | 
